Some of the results follow.
target: OsWRKY34 (Oryza sativa, UniProt Q0JBA9 1-250); test: protein-binding microarray (RPBM); PBS, 2% BSA, 51.3 ng/ul salmon testes DNA, 50 uM zinc acetate, 200 nM TF, 25 C, 1 h; high values mean tight binding; conditions: protein: recombinant; tags: N-terminal polyhistidine and DsRed monomer fusion (pET32a); label: CyDye5-dUTP incorporated in the synthesized complementary strand; 3' TTTTT single-stranded linker to array surface; dsDNA, one strand shown
Procedure, shortened: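 A custom Agilent array was converted to double-stranded form by primer extension with Cy5-dUTP and blocked with 2% BSA. Protein at 200 nM in PBS with 2% BSA, salmon testes DNA and 50 µM zinc acetate was applied for 1 h at 25 °C, followed by washing. The proteins were polyhistidine–DsRed N-terminal fusions of transcription factors, expressed in E. coli BL21-CodonPlus and Ni–NTA-purified. The binding signal is per-feature fluorescence intensity (arbitrary units) from an Axon 4000B scanner.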

Amino acid sequences for entries named in this document (tags omitted).
UniProt Q0JBA9, entry or part of it: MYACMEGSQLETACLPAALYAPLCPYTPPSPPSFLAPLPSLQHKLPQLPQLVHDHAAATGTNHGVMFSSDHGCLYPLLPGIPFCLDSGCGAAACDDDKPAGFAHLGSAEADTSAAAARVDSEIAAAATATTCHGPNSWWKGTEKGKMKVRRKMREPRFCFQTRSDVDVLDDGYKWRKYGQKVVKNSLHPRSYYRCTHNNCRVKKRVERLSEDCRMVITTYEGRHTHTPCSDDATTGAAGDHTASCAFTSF

Sequence	binding signal
GTTGATTTGTTGTGTGTGTTCTCTCCCCTAGGGGATTTTGCGGAGTCACCTAGTGCAG	10100 fluorescence intensity (a.u.)
TCCTCTCATCACCACCACCACCCCACCTCCTTCTCTCCCTCGGAGTCACCTAGTGCAG	8100 fluorescence intensity (a.u.)
ATCTTGTGCAGTACTCCATCCGTTTCACAATATAATCATTCGGAGTCACCTAGTGCAG	8650 fluorescence intensity (a.u.)
CTCTCTTTTCCTTTTCTAATTTTAGATTTTATTTTATTTTCGGAGTCACCTAGTGCAG	8600 fluorescence intensity (a.u.)
TCGCTGCTGAGTGTTGACCCGGCCCAGATGAACTTGACAACGGAGTCACCTAGTGCAG	8500 fluorescence intensity (a.u.)
AGTTTTGCTAGCTGCTGCTTCACTCTACTGTTCGGCCATGCGGAGTCACCTAGTGCAG	8260 fluorescence intensity (a.u.)
GGTCTACAAAATATACCTTTGACCTTATTTTTTATTATAACGGAGTCACCTAGTGCAG	8210 fluorescence intensity (a.u.)
TCATTATTAGCCGATTGGTTTCTACTGATTTATATTCTTGCGGAGTCACCTAGTGCAG	8410 fluorescence intensity (a.u.)
GTCATTTTCTGTATGCTATTCTATATTGGAAGCTTTCTGTCGGAGTCACCTAGTGCAG	8300 fluorescence intensity (a.u.)
CTATTCGTATATGCACTTCCATTCCAAAATATAATAACTTCGGAGTCACCTAGTGCAG	8810 fluorescence intensity (a.u.)
GTGGTTATTTGGCTCTAAGGGTTATGTCCGCTTGCGAAAACGGAGTCACCTAGTGCAG	8940 fluorescence intensity (a.u.)
TTCCTCTCCTCTTCTGCGCGGCTTCAAAGTTTTCGGCTTTCGGAGTCACCTAGTGCAG	8510 fluorescence intensity (a.u.)
TTTCATTTATTTCTCATTTCTTAATCCCATTTGTATTTTTCGGAGTCACCTAGTGCAG	8380 fluorescence intensity (a.u.)
TATTTGATTCAACTGTGCTATTTACATTTTCTTCAATTTTCGGAGTCACCTAGTGCAG	11700 fluorescence intensity (a.u.)
TCGCCGAGGAGAGCAGAGCAGGGGAGGGGAGGGGATCCTGCGGAGTCACCTAGTGCAG	10900 fluorescence intensity (a.u.)
AATGTATTTTTTCTAAATTTTTTTTCATCTTGTCCGTTCCCGGAGTCACCTAGTGCAG	8230 fluorescence intensity (a.u.)
CTCCCAAATCATTCCATCTGCTGCCTTTGCAAGTTTCAACCGGAGTCACCTAGTGCAG	13700 fluorescence intensity (a.u.)
AAGTTATCACTATCAACTTTCGGCGCTGCCTGTTTACATACGGAGTCACCTAGTGCAG	10100 fluorescence intensity (a.u.)
CTTCCCATGCACGCCGCTCTCACCTGATTGCCATTGTCCGCGGAGTCACCTAGTGCAG	11400 fluorescence intensity (a.u.)
CGACATGCTCGTTCGCTCTGTCCGCTCTGCGCGCCACTCTCGGAGTCACCTAGTGCAG	8400 fluorescence intensity (a.u.)
ACATCATATCTAAGGTTAGTTTCACCTGTGTACTTGCATACGGAGTCACCTAGTGCAG	10800 fluorescence intensity (a.u.)

Sequence	binding signal
TGCATGCTTCATTGGTCTCACCATCTTGAACTTGAATTCACGGAGTCACCTAGTGCAG	8290 fluorescence intensity (a.u.)
AGACTATATTGTGCCATCCTTTGGTATCCTTATGCATTTGCGGAGTCACCTAGTGCAG	9560 fluorescence intensity (a.u.)
GTCATGCAATACGTTTGACCATATTGTACCCAATTTACAACGGAGTCACCTAGTGCAG	9840 fluorescence intensity (a.u.)
GCACGCAACGCATCTCCGCCGTCCATCGCATCCACCCCGCCGGAGTCACCTAGTGCAG	12200 fluorescence intensity (a.u.)
TTGTCTCCTATCTTGTGCCGTGCCTTCTTAAACCATTGCTCGGAGTCACCTAGTGCAG	8610 fluorescence intensity (a.u.)
TCCTTTTACGTTCTTGTATTAGAATCAATCTTTTTTTGTCCGGAGTCACCTAGTGCAG	8520 fluorescence intensity (a.u.)
TTCTGCCGCCCGCCGCCCGGGAAGCTCCGCCTCCGCCGTCCGGAGTCACCTAGTGCAG	8850 fluorescence intensity (a.u.)
CTCCTCGCTTCTTCTCGCCGCCGCGCCCGCGCGCTGCTGCCGGAGTCACCTAGTGCAG	8750 fluorescence intensity (a.u.)
AGGTTCCGGGAGGGCGGGGTGGAGCACGAGGCGGCGGTGCCGGAGTCACCTAGTGCAG	10600 fluorescence intensity (a.u.)
GCTATGATCCTTTTTTTTTCTTCTCGTCTGGCTTTTGTCACGGAGTCACCTAGTGCAG	10700 fluorescence intensity (a.u.)
TTGATCTGGTTTTCGCAGGTTGCCGCTTCGAATCTCGCCGCGGAGTCACCTAGTGCAG	10700 fluorescence intensity (a.u.)
TGTACTGTGCCAACAACTCCACTGTCCACTCACTTTTTCTCGGAGTCACCTAGTGCAG	8570 fluorescence intensity (a.u.)
GCTTACGTGTGCCGAAGCAGCGGCGGCCGGCGCCTCCTCCCGGAGTCACCTAGTGCAG	8250 fluorescence intensity (a.u.)
GATTGCTCTGCCTGGGGACGGTGTTGCTCTGCTTGGACTTCGGAGTCACCTAGTGCAG	8220 fluorescence intensity (a.u.)
AACCGCAACCAACTAACTCTCCCGGGAGATCACGGGCATTCGGAGTCACCTAGTGCAG	8310 fluorescence intensity (a.u.)
ACCAGAACCAGCTGTTCCGTTGACCGGACCACCAACGCTGCGGAGTCACCTAGTGCAG	15500 fluorescence intensity (a.u.)
TCGATCGATCACGTCGCAAACACACACAGTACACACGCAACGGAGTCACCTAGTGCAG	8370 fluorescence intensity (a.u.)
GTGGCGCCGGCGTCCTCCTGCTCCCGCCTCATTCGCTCACCGGAGTCACCTAGTGCAG	9900 fluorescence intensity (a.u.)
GGAACGGCCAGCGGCGGCGGCGGGTAGGGTGGGGTGGGGCCGGAGTCACCTAGTGCAG	21600 fluorescence intensity (a.u.)
ATGTGGACTTTTTTCCAATTTCCCCGCACTGCCCGCCCCGCGGAGTCACCTAGTGCAG	8590 fluorescence intensity (a.u.)
GTCCCTGGCTTTCTTCGTCTCTCTTCATGTCGCCGGCACACGGAGTCACCTAGTGCAG	10600 fluorescence intensity (a.u.)

An excerpt of these results, in CSV form.
Sequence,binding signal
GGTCTACAAAATATACCTTTGACCTTATTTTTTATTATAACGGAGTCACCTAGTGCAG,8210 fluorescence intensity (a.u.)
TCATTATTAGCCGATTGGTTTCTACTGATTTATATTCTTGCGGAGTCACCTAGTGCAG,8410 fluorescence intensity (a.u.)
GTCATTTTCTGTATGCTATTCTATATTGGAAGCTTTCTGTCGGAGTCACCTAGTGCAG,8300 fluorescence intensity (a.u.)

Reference: article PMC7819943, “Rice protein-binding microarrays: a tool to detect cis-acting elements near promoter regions in rice”
